From patent US10023610B2, “Ligands for prevention of neurotoxicity of the alzheimer's disease related amyloid-beta peptide” (AlphaBeta AB, priority 2014, dated 2018)
Entries after “also recorded” stand apart in the source; their conditions may differ. For at least one compound, name, drawing or mass did not settle the structure.

Amino acid sequences for entries named in this document (tags omitted). Residues count along the entry.
UniProt P05067, 672-713 limits assumed: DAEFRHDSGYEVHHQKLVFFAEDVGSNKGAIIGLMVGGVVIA

What was measured:
[1] = tested on: kainate-induced gamma oscillations; experiment: Control: ligands alone on kainate-induced gamma oscillations in hippocampal slices (absence of Aβ); assay type: cell-based, C57BL/6 mice; details: for gamma oscillation power, ligand alone: mean ± SEM, n=8
Protocol: (§1) Experiments were carried out in accordance with ethical permit granted by Norra Stockholms Djurförsöksetiska Nämnd to AF (N45/13). C57BL/6 mice of either sex (postnatal days 14-23, supplied from Charles River, Germany) were used in all experiments. The animals were deeply anaesthetized using isofluorane before being sacrificed by decapitation.
(§2) The brain was dissected out and placed in ice-cold ACSF (artificial cerebrospinal fluid) modified for dissection. This solution contained (in mM); 80 NaCl, 24 NaHCO3, 25 Glucose, 1.25 NaH2PO4, 1 Ascorbic acid, 3 NaPyruvate, 2.5 KCl, 4 MgCl2, 0.5 CaCl2, 75 Sucrose. Horizontal sections (350 μm thick) of the ventral hippocampi of both hemispheres were prepared with a Leica VT1200S vibratome (Microsystems, Stockholm, Sweden). Immediately after slicing sections were transferred to a submerged incubation chamber containing standard ACSF (in mM): 124 NaCl, 30 NaHCO3, 10 Glucose, 1.25 NaH2PO4, 3.5 KCl, 1.5 MgCl2, 1.5 CaCl2. The chamber was held at 34° C. for at least 20 minutes after dissection. It was subsequently allowed to cool to ambient room temperature (19-22° C.) for a minimum of 40 minutes. Peptides were added to the incubation solution 15 minutes before transferring slices to the interface-style recording chamber. While incubating slices were continuously supplied with carbogen gas (5% CO2, 95% O2) bubbled into the ACSF. Chemical compounds used in intracellular and extracellular solutions were obtained from Sigma-Aldrich Sweden AB (Stockholm, Sweden). The Kainic acid was obtained from Tocris.
Recordings were carried out in hippocampal area CA3 with borosilicate glass microelectrodes, pulled to a resistance of 3-7 MO. Local field potentials (LFP) were recorded at 34° C. using microelectrodes filled with ACSF placed in stratum pyramidale. […]
Power spectral density plots (from 60 s long LFP recordings) were calculated in averaged Fourier-segments of 8192 points using Axograph X (Kagi, Berkeley, Calif., USA). Oscillation power was calculated by integrating the power spectral density between 20 and 80 Hz. […]

Aβ1-42 [2] = target: T1, Aβ1-42 (Homo sapiens, UniProt P05067); experiment: Prevention of Aβ-induced decrease of kainate-induced gamma oscillations in hippocampal slices (LFP, area CA3); assay type: cell-based, C57BL/6 mice; details: for gamma oscillation power: 100 nM kainate, mean ± SEM (control 5.58 10^−09, Aβ alone 1.97 10^−09)
T1 construct: Samples of Aβ1-42 peptide (5 μM) alone or mixed with 5 or 25 μM of each ligand
Protocol: as §1, §2
Recordings were carried out in hippocampal area CA3 with borosilicate glass microelectrodes, pulled to a resistance of 3-7 MO. Local field potentials (LFP) were recorded at 34° C. using microelectrodes filled with ACSF placed in stratum pyramidale. LFP oscillations were elicited by applying kainic acid (100 nM) to the extracellular bath. The oscillations were allowed to stabilize for 20 minutes before any recordings were carried out. LFP recordings were performed with a 4 channel amplifier/signal conditioner M102-amplifier (Electronics lab, Faculty of Mathematics and Natural Sciences, University of Cologne, Cologne, Germany). The signals were sampled at 10 kHz, conditioned using a Hum Bug 50 Hz noise eliminator (Quest Scientific, North Vancouver, BC, Canada), software low-pass filtered at 1 kHz, digitized and stored using a Digidata 1322A and Clampex 9.6 software (Molecular devices, CA, USA).
Power spectral density plots (from 60 s long LFP recordings) were calculated in averaged Fourier-segments of 8192 points using Axograph X (Kagi, Berkeley, Calif., USA). Oscillation power was calculated by integrating the power spectral density between 20 and 80 Hz. Data is reported as means±standard errors of the means in the text and as median and upper/lower quartile in the figure box plots. For statistical analysis the Mann-Whitney U-test was used.

Aβ1-42 [3] = target: T1, Aβ1-42; experiment: Electron microscopy of fibril formation from Aβ1-42 in the presence of ligands; assay type: biochemical; details: Aβ1-42 5 μM with 5 or 25 μM ligand, 37° C., 9 hours
Protocol: Samples of Aβ1-42 peptide (5 μM) alone or mixed with 5 or 25 μM of each ligand in a volume of 100 μl, were incubated at 37° C. for 9 hours. Aliquotes of 2 μl were taken from the different samples, adsorbed on copper grids and negatively stained with 2.5% uranyl acetate in 50% ethanol. The samples were examined and photographed using a Hitachi H7100 microscope operated at 75 kV.

[4] = 250 nM ligand with 50 nM Aβ, 15 min incubation

Compound	gamma oscillation power, ligand alone [1]	gamma oscillation power (Aβ1-42 [2]; [4])	effect of ligand alone on kainate-induced gamma oscillations [1]	fibril formation by Aβ1-42 (electron microscopy) (Aβ1-42 [3])	effectiveness in preventing Aβ-induced degradation of network gamma oscillations compared with first generation ligands (Aβ1-42 [2])	prevention of the Aβ-induced decrease of kainate-induced gamma oscillations (Aβ1-42 [2]; 50 nM ligand, equimolar (1:1) to 50 nM Aβ1-42, 15 min incubation)	prevention of the Aβ-induced decrease of kainate-induced gamma oscillations (Aβ1-42 [2]; 50 nM ligand, equimolar (1:1) to 50 nM Aβ1-42, 15 min incubation, listed as DH-18)	prevention of the Aβ-induced decrease of kainate-induced gamma oscillations (Aβ1-42 [2]; [4])
N=C(N)CCNCCCC(N)C(=O)NC(Cc1c[nH]c2ccccc12)C(=O)NCCC(NC(=O)CCCC(=O)O)C(=O)O (centres unmarked) [Pep1b, reference compound]	4.38 10^−09±2.65 10^−10 V^2	3.44 10^−09±3.15 10^−10 V^2	–	–	–	–	–	–
CCCCCCCCCC(=O)NCCNCCN [Dec-DETA, reference compound]	5.55 10^−09±5.23 10^−10 V^2	4.94 10^−09±4.08 10^−10 V^2	–	–	–	–	–	–
CCCCCCCCCC(=O)NCCNC[C@H](N)C(=O)N[C@H](Cc1c[nH]c2ccccc12)C(=O)NCC[C@@H](NC(=O)CCCC(=O)O)C(=O)O [DH18, (R)—N^4—[N^2—(N^3—(N-decanoyl-2-aminoethyl)-(S)-2,3-diaminopropionyl)-D-tryptophanyl]-N^2-glutanoyl-2,4-diaminobutanoic acid]	–	7.59 10^−09±6.31 10^−10 V^2	neither of these ligands had an effect	less fibrils	more effective than first generation ligands	complete prevention; also recorded: prevention of Aβ-induced degradation of network gamma oscillations	effective also at only a 1:1 ratio; also recorded: reverse Aβ-induced reduction of gamma oscillation	complete prevention; also recorded: reverses Aβ-induced reduction of gamma oscillation
